{"sequences": {"note": "Amino acid sequences for entries named in this document (tags omitted).", "UniProt Q39255": "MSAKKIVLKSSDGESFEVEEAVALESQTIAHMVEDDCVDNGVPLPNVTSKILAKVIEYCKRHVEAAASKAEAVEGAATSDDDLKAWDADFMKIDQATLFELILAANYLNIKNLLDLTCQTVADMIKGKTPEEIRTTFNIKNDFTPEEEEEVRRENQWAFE"}, "source": "paper PMC11085264", "target": "cYFP-AtSKP1 (Arabidopsis thaliana) (UniProt Q39255)", "test": "split reporter; ratiometric BiFC (rBiFC) in N. benthamiana leaves; both partners N-terminally fused to split YFP in one 2in1 vector with a constitutive RFP cassette; YFP/RFP ratio in the nucleus", "note": "No constants are given. Whether binding was seen depends on the method and setting. In cells and extracts the contact can be indirect. Some entries that bind do so weakly or less than the wild type. Tags and fused reporters may be left off the sequences shown.", "data": [{"binder": "nYFP-AtMAX2 (protein, UniProt Q9SIM9 1-693) MASTTLSDLPDVILSTISSLVSDSRARNSLSLVSHKFLALERSTRSHLTIRGNARDLSLVPDCFRSISHLDLSFLSPWGHTLLASLPIDHQNLLALRLKFCFPFVESLNVYTRSPSSLELLLPQWPRIRHIKLLRWHQRASQIPTGGDFVPIFEHCGGFLESLDLSNFYHWTEDLPPVLLRYADVAARLTRLDLLTASFTEGYKSSEIVSITKSCPNLKTFRVACTFDPRYFEFVGDETLSAVATSSPKLTLLHMVDTASLANPRAIPGTEAGDSAVTAGTLIEVFSGLPNLEELVLDVGKDVKHSGVALEALNSKCKKLRVLKLGQFQGVCSATEWRRLDGVALCGGLQSLSIKNSGDLTDMGLVAIGRGCCKLTTFEIQGCENVTVDGLRTMVSLRSKTLTDVRISCCKNLDTAASLKAIEPICDRIKRLHIDCVWSGSEDEEVEGRVETSEADHEEEDDGYERSQKRCKYSFEEEHCSTSDVNGFCSEDRVWEKLEYLSLWINVGEFLTPLPMTGLDDCPNLEEIRIKIEGDCRGKRRPAEPEFGLSCLALYPKLSKMQLDCGDTIGFALTAPPMQMDLSLWERFFLTGIGSLSLSELDYWPPQDRDVNQRSLSLPGAGLLQECLTLRKLFIHGTAHEHFMNFLLRIPNLRDVQLRADYYPAPENDMSTEMRVGSCSRFEDQLNSRNIID", "values": [{"measurement": "binding", "value": "binds"}]}]}
